Like-named read-outs stand apart in the source and are kept apart here.

Experimental findings from publication PMC7842083 (Molecular pharmaceutics, 2020) are described below.

For data set [1] the following is noted: oral gavage (caffeine 5, diazepam 30 mg/kg), mean ± SD, n=3.
Another data set in a line: in vivo. Particulars: female, po; for Kp at 10 min: 30 mg/kg.
The next data set in a line: in vitro. Particulars: pH 6.
Where [2] appears, read: APP/PS1 (B6C3-Tg (APPswe, PSEN1dE9)85Dbo/Mmjax), mouse.
[3] abbreviates: WT littermates of APP/PS1, mouse.

As to `CN1C(=O)CN=C(c2ccccc2)c2cc(Cl)ccc21` [Diazepam, diazepam], the AUCbrain came to 117.7 ± 18.2 ng·h/g in data set [1] (APP/PS1 mice) and 119.5 ± 5.5 ng·h/g in data set [1] (WT mice). For the same compound, the values for the Kp in the data set “in vivo” (setting [2]) and in “in vivo” (setting [3]) were 0.18 to 0.81 and 0.31 to 1.07, respectively. The Kp at 10 min stood at 0.18 ± 0.05 in the data set “in vivo” (setting [2]) and 0.31 ± 0.07 in the data set “in vivo” (setting [3]). Besides, in the data set “in vitro” (APP/PS1, mouse), the Papp at 120 min, 0.1 µCi/mL turned out to be 34.1 ± 9.2 ×10⁻⁶ cm/s. Also, the Papp at 120 min in “in vitro” (WT, mouse) was 29.1 ± 9.7 ×10⁻⁶ cm/s.

For orientation: Papp means the rate of passage across a membrane or cell layer, normalised by area and donor concentration.
